Data published in patent publication US8987445B2, “Sulfonamide compounds having TRPM8 antagonistic activity” (Mitsubishi Tanabe Pharma Corporation, priority 2011, dated 2015).
At least one compound was matched to its structure with a doubt left.

Protein sequences, listed by entry. Tags and fused reporters are not part of them.
UniProt Q8R455, whole entry: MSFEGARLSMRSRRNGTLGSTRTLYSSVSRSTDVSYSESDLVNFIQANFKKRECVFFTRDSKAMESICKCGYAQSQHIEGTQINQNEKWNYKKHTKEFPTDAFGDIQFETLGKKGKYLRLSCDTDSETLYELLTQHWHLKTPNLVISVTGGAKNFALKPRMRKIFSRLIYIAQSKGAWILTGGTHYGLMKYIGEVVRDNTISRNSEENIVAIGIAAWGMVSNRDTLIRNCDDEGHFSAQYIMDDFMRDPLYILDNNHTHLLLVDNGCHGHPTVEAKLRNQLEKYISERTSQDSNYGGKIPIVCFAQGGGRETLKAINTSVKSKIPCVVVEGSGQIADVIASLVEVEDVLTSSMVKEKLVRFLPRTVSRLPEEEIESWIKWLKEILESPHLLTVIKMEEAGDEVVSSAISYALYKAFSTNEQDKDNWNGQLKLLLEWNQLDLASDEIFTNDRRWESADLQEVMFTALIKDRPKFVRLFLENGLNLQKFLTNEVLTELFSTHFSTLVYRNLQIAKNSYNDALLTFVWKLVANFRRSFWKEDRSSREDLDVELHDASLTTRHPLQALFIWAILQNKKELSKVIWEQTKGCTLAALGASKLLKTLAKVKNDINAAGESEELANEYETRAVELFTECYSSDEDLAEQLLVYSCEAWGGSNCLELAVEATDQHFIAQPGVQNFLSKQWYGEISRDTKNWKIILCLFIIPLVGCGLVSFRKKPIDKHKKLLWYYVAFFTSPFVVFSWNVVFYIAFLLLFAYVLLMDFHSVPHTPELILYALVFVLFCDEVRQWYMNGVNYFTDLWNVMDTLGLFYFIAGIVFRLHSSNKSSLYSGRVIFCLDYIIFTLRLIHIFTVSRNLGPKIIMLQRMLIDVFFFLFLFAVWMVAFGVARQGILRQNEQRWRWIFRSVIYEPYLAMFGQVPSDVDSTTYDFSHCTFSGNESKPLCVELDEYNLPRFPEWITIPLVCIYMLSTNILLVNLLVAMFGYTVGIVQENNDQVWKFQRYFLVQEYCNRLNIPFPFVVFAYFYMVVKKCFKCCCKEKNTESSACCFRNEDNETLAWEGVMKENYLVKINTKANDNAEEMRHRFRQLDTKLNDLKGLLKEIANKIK

Target: TRPM8 (Rattus norvegicus (Rat), UniProt Q8R455)
Assay: In vivo TRPM8 antagonistic assay in rats (menthol-induced wet-dog shakes)
Conditions: SD male rats; 3 mg/kg po 1 hour prior to menthol 50 mg/kg ip; WDS counted for 5 min
Method: The antagonistic activity of compounds was assessed in the “wet-dog” shakes (WDS) model in rats. […] Pretreatment of the rats with a TRPM8 antagonist prior to menthol administration inhibits the observed shaking behavior.
To assess the ability of a TRPM8 antagonist to prevent menthol induced shaking behavior in Sprague Dawley (SD) male rats, test compounds (3 mg/kg, po, in 0.5% methyl cellulose; N=3-4/group) were administered 1 hour prior to menthol challenge (50 mg/kg, ip, in 10% Macrogol 15 Hydroxystearate/saline). Spontaneous WDS were counted for 5 min post menthol dosing. Inhibition of the spontaneous WDS behavior relative to vehicle pretreatment is expressed as percent inhibition, calculated as follows: % Inhibition=[1−(treatment WDS count/vehicle WDS count)]×100.

## O=C([O-])c1ccc(S(=O)(=O)N(Cc2ccc(C(F)(F)C3CC3)c(Cl)c2)c2ncc3ccccc3c2C2CC2)cc1.[Na+] [Example 185]
  TRPM8 antagonistic assay (% Inhibition @ 3 mg/kg): 93.8%
